Measured values published in the supplement of paper PMC12823440, “Inhibitors supercharge kinase turnover through native proteolytic circuits” (Nature, 2025).
The other results are listed elsewhere or left out. The calls rarely recur for the same compound in another form.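 Kinases, fused to nanoluciferase, were expressed in K562 cells; luminescence was measured every 4 h from 2 to 18 h as percent of control (DMSO = 100%, positive control = 0%). A time point is decreased if signal falls significantly (2 sigma). Hits were called by the authors by a rule that is not shown; the count of time points alone does not decide it.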

The chains behind the UniProt entries cited, without tags or fusion partners. Where a name states a change or a piece, a line headed by the entry shows the natural chain unless it says otherwise.
UniProt Q06187: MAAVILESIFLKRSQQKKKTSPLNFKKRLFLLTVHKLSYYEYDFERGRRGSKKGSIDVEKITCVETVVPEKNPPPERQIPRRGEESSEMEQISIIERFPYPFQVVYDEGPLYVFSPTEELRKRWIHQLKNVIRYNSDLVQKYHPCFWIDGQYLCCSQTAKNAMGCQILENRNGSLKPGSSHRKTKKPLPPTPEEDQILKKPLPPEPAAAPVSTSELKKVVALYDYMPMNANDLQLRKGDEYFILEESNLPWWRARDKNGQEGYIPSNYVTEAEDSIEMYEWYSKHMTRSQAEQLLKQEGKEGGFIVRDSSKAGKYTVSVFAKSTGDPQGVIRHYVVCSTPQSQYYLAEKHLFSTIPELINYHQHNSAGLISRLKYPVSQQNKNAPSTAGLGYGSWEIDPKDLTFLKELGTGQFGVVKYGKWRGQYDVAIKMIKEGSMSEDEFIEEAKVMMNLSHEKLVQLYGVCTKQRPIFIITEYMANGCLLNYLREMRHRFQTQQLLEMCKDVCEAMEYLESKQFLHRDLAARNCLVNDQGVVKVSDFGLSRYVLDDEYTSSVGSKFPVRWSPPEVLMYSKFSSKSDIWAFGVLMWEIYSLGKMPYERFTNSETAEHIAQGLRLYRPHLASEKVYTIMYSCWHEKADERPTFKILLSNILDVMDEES
UniProt Q9UQM7, whole entry: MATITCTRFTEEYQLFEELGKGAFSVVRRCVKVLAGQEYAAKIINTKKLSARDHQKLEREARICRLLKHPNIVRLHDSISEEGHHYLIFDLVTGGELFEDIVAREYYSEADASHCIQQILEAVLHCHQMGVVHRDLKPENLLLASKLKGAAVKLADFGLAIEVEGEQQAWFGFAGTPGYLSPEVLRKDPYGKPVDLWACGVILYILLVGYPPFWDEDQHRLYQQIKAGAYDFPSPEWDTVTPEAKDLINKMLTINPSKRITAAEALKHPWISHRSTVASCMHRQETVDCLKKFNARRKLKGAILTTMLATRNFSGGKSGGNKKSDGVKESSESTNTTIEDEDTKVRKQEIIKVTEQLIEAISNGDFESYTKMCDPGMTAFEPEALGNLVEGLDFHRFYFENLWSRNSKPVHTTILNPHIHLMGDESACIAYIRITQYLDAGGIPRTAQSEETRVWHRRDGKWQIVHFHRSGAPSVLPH
UniProt Q13555: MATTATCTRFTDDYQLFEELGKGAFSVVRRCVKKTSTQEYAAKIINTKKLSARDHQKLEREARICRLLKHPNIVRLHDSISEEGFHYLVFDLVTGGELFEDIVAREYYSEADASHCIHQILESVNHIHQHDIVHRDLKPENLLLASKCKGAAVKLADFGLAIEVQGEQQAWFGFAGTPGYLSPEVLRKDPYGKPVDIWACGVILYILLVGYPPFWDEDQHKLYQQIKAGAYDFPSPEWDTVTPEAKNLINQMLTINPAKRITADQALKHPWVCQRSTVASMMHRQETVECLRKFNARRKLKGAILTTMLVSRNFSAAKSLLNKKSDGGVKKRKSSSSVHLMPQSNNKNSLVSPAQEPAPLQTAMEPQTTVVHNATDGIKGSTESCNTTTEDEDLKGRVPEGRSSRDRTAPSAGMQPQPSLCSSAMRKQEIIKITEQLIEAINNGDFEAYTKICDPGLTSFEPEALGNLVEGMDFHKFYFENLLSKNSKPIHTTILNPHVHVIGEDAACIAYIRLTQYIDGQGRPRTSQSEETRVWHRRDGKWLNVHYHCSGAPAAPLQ
UniProt Q15131: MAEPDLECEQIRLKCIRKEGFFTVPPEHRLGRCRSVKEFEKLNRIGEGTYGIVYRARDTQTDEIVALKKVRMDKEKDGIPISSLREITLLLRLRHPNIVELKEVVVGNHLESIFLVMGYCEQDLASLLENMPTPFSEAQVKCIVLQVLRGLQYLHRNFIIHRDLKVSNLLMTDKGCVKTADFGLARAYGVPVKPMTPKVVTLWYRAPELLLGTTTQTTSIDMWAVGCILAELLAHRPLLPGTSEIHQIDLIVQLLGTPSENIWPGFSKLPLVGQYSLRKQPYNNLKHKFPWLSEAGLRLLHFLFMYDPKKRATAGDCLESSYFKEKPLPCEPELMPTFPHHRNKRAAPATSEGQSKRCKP
UniProt Q00526: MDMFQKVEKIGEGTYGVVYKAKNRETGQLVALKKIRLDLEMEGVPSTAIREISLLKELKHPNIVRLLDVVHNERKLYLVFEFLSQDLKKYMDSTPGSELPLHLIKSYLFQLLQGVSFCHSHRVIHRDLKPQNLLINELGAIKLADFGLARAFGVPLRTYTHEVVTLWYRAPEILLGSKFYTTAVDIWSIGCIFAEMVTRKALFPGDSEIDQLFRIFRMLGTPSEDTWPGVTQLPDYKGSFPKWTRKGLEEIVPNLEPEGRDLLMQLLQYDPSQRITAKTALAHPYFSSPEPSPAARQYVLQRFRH
UniProt P11802: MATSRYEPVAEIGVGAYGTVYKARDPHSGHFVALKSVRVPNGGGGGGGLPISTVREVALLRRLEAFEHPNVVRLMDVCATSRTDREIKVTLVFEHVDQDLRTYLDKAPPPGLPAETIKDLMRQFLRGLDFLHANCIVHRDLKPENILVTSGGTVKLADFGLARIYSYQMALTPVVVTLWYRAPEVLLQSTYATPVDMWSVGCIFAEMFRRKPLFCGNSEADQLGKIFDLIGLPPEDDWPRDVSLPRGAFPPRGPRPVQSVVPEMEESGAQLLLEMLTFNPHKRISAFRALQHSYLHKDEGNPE
UniProt Q00535, whole entry, looked up: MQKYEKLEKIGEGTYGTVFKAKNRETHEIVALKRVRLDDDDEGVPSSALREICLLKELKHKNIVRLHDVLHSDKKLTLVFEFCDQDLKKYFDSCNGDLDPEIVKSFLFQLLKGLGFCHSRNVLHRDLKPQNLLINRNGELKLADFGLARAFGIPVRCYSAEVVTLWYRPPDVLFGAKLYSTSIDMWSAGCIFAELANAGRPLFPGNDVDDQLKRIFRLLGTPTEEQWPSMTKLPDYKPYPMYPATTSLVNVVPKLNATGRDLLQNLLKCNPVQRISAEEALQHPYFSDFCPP
UniProt Q00534, whole entry: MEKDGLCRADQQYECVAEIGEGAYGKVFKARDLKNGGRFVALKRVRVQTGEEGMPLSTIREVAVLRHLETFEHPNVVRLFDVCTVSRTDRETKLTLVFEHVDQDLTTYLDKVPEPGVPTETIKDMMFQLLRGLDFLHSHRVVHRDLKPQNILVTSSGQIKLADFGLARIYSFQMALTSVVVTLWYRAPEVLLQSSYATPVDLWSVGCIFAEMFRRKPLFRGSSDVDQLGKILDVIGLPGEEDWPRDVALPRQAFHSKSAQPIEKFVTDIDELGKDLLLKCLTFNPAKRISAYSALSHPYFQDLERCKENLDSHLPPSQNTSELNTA

How the values were obtained:
Experiment in all cases: kinase-Nluc reporter destabilization hit call (1 = scored as downregulated) (binary); higher = compound decreases kinase abundance
Conditions in all cases: K562; 2-18 h
BRAF_V600E = test system: BRAF_V600E
BTK = BTK (UniProt Q06187)
CAMK2A = CAMK2A (UniProt Q9UQM7)
CAMK2G = CAMK2G (UniProt Q13555)
CDK10 = CDK10 (UniProt Q15131)
CDK2 = CDK2 (UniProt P24941)
CDK3 = CDK3 (UniProt Q00526)
CDK4 = CDK4 (UniProt P11802)
CDK5 = CDK5 (UniProt Q00535)
CDK6 = CDK6 (UniProt Q00534)

Measured: kinase-Nluc reporter destabilization hit call

CC[C@H](C)[C@@H]1NC(=O)[C@@H]2CCCN2C(=O)[C@@H]2CCCN2C(=O)[C@@H]2CCCN2C(=O)[C@H](CC(C)C)NC(=O)CNC(=O)CNC(=O)[C@H](Cc2ccccc2)NC1=O [Heterophyllin B] (10 µM)
inactive: BRAF_V600E 0 | BTK 0 | CAMK2A 0 | CAMK2G 0 | CDK10 = 0 | CDK2 = 0 | CDK3 = 0 | CDK4 = 0 | CDK5 = 0 | CDK6 = 0

Cc1ccc(-n2c(-c3ccc(O)cc3O)n[nH]c2=O)cc1 (10 µM)
inactive: BRAF_V600E 0 | BTK 0 | CAMK2A 0 | CDK10 = 0 | CDK2 = 0 | CDK3 = 0 | CDK4 = 0 | CDK5 = 0 | CDK6 = 0
active: CAMK2G 1

CC(C)Cn1cc(C#N)c2cc(Oc3ccc(NC(=O)[C@@H]4CCCN4)cc3)ccc21 (10 µM)
inactive: BRAF_V600E 0 | BTK 0 | CAMK2A 0 | CAMK2G 0 | CDK10 = 0 | CDK2 = 0 | CDK3 = 0 | CDK4 = 0 | CDK5 = 0 | CDK6 = 0

Fetched by structure from the list above (2):
CC[C@H](C)[C@@H]1NC(=O)[C@@H]2CCCN2C(=O)[C@@H]2CCCN2C(=O)[C@@H]2CCCN2C(=O)[C@H](CC(C)C)NC(=O)CNC(=O)CNC(=O)[C@H](Cc2ccccc2)NC1=O [Heterophyllin B] (10 µM)
inactive: BRAF_V600E 0 | BTK 0 | CAMK2A 0 | CAMK2G 0 | CDK10 = 0 | CDK2 = 0 | CDK3 = 0 | CDK4 = 0 | CDK5 = 0 | CDK6 = 0

Cc1ccc(-n2c(-c3ccc(O)cc3O)n[nH]c2=O)cc1 (10 µM)
inactive: BRAF_V600E 0 | BTK 0 | CAMK2A 0 | CDK10 = 0 | CDK2 = 0 | CDK3 = 0 | CDK4 = 0 | CDK5 = 0 | CDK6 = 0
active: CAMK2G 1

(continued)

CCOc1cc(C(=O)N2CCC(N3CCN(C)CC3)CC2)ccc1Nc1ncc2c(n1)N(S(C)(=O)=O)c1ccccc1C(=O)N2C (10 µM)
inactive: BRAF_V600E 0 | BTK 0 | CAMK2A 0 | CAMK2G 0 | CDK10 = 0 | CDK2 = 0 | CDK3 = 0 | CDK4 = 0 | CDK5 = 0 | CDK6 = 0

O=c1cc(-c2ccc(O)cc2)oc2cc(O)c([C@@H]3O[C@H](CO)[C@@H](O)[C@H](O)[C@H]3O)c(O)c12 [Isovitexin] (10 µM)
inactive: BRAF_V600E 0 | BTK 0 | CAMK2A 0 | CAMK2G 0 | CDK10 = 0 | CDK2 = 0 | CDK3 = 0 | CDK4 = 0 | CDK5 = 0 | CDK6 = 0

CNC(=O)c1nnc(NC(=O)C2CC2)cc1Nc1cccc(-c2ncn(C)n2)c1OC [Deucravacitinib] (10 µM)
inactive: BRAF_V600E 0 | BTK 0 | CAMK2A 0 | CAMK2G 0 | CDK10 = 0 | CDK2 = 0 | CDK3 = 0 | CDK4 = 0 | CDK5 = 0 | CDK6 = 0

COc1ncc2cc(C(=O)Nc3cc(C(=O)NCc4cccc(Cl)c4)ccc3Cl)c(=O)[nH]c2n1 (2.5 µM)
inactive: BRAF_V600E 0 | BTK 0 | CAMK2A 0 | CAMK2G 0 | CDK10 = 0 | CDK2 = 0 | CDK3 = 0 | CDK4 = 0 | CDK5 = 0 | CDK6 = 0

O=C(Nc1nccs1)C(c1cc(F)ccc1O)N1Cc2ccccc2C1=O (stereo not given) (10 µM)
inactive: BRAF_V600E 0 | BTK 0 | CAMK2A 0 | CAMK2G 0 | CDK10 = 0 | CDK2 = 0 | CDK3 = 0 | CDK4 = 0 | CDK5 = 0 | CDK6 = 0

Cc1cc(=O)[nH]c(=S)[nH]1 [Methylthiouracil] (10 µM)
inactive: BRAF_V600E 0 | BTK 0 | CAMK2A 0 | CAMK2G 0 | CDK10 = 0 | CDK2 = 0 | CDK3 = 0 | CDK4 = 0 | CDK5 = 0 | CDK6 = 0

CCCCCC1CC1CC1CC1CCCCCCCC(=O)O (stereo not given) (10 µM)
inactive: BRAF_V600E 0 | BTK 0 | CAMK2A 0 | CAMK2G 0 | CDK10 = 0 | CDK2 = 0 | CDK3 = 0 | CDK4 = 0 | CDK5 = 0 | CDK6 = 0
